Laboratory results as given in publication PMC8270486.
Results are given in words; binding and its absence hold for the method and conditions named. Binding seen in cells or lysates may run through a third protein. Some entries that bind do so weakly or less than the wild type.

Biological target: T1, Alk5 (TGFβR1) (not stated (endogenous in ECs; mouse ECs and bovine aortic ECs are used in the paper)) (UniProt Q64729)
T1 sequence: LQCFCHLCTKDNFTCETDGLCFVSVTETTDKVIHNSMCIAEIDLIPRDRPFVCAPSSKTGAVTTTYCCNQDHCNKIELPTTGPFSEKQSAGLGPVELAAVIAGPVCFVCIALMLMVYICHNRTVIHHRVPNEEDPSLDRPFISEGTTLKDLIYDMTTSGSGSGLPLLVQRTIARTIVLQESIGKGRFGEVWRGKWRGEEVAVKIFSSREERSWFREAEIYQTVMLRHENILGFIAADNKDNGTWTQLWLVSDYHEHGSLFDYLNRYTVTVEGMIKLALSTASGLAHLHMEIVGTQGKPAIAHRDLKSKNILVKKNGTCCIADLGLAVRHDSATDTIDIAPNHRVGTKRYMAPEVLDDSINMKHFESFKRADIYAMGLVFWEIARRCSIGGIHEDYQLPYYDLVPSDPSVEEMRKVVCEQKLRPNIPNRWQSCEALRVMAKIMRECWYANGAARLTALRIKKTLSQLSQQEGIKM
Assay: co-IP; endogenous Alk5 immunoprecipitated from precleared lysates of ECs exposed to acute shear stress, with antibody coupled to protein A/G plus sepharose beads, 2 hours at 4°C, three washes with lysis buffer; Western blot for Shc; nonspecific IgG as control

binding: binds
B1: Src homology and collagen (Shc) (protein, UniProt P98083 1-579)
chain: MDLLPPKPKYNPLRNESLSSLEEGASGSTPPEELPSPSASSLGPILPPLPGDDSPTTLCSFFPRMSNLKLANPAGGRLGPKGEPGKAAEDGEGSAGAALRDSGLLPLLQDMNKLSGGGGRRTRVEGGQLGGEEWTRHGSFVNKPTRGWLHPNDKVMGPGVSYLVRYMGCVEVLQSMRALDFNTRTQVTREAISLVCEAVPGAKGATRRRKPCSRPLSSILGRSNLKFAGMPITLTVSTSSLNLMAADCKQIIANHHMQSISFASGGDPDTAEYVAYVAKDPVNQRACHILECPEGLAQDVISTIGQAFELRFKQYLRNPPKLVTPHDRMAGFDGSAWDEEEEEPPDHQYYNDFPGKEPPLGGVVDMRLREGAARPTLPSAQMSSHLGATLPIGQHAAGDHEVRKQMLPPPPCPGRELFDDPSYVNIQNLDKARQAGGGAGPPNPSLNGSAPRDLFDMKPFEDALRVPPPPQSMSMAEQLQGEPWFHGKLSRREAEALLQLNGDFLVRESTTTPGQYVLTGLQSGQPKHLLLVDPEGVVRTKDHRFESVSHLISYHMDNHLPIISAGSELCLQQPVDRKV
